Construct, isoform or probe ends are uncertain for at least one entry.
Target: TOPOVIBLΔC25 blocked monomer (DTT/IAA treated) (Mus musculus) (UniProt J3QMY9)
Assay: native MS
Details: equimolar mix, 1:1 complex at 85,731 Da

Protein sequences, listed by entry. Tags and fused reporters are not part of them. Residues count along the entry.
UniProt J3QMY9, 1-554, stated change not applied: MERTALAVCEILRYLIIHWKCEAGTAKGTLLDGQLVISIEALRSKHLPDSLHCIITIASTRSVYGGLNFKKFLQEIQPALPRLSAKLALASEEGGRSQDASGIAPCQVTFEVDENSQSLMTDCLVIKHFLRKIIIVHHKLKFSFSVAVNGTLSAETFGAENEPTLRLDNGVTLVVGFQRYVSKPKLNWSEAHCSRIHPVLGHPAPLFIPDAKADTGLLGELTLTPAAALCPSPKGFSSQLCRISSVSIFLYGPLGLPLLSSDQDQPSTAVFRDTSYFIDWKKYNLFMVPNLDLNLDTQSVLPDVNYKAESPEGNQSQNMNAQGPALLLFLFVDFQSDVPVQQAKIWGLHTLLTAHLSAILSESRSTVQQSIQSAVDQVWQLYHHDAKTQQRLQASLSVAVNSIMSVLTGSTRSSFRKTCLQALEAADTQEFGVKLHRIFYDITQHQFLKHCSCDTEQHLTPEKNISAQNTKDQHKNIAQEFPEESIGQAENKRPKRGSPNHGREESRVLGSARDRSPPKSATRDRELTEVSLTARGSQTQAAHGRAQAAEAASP

**Q.** Does “CTTTCCAGAAGCTACCACCATCATGTCTTCTACCACTGT (double strand) [2B39 dsDNA (native MS)]” bind?
**A.** Result: binds
